Measurements taken from PMC11037505.
These are yes or no findings as the source states them, for the method shown. Binding seen in cells or lysates may run through a third protein. Binding calls can cover weak binding; strength is not graded here. Where a sequence is shown, tags or fusion partners need not be part of it.

T1: PCDH19-FLAG (mouse) (UniProt Q80TF3)
T1 sequence: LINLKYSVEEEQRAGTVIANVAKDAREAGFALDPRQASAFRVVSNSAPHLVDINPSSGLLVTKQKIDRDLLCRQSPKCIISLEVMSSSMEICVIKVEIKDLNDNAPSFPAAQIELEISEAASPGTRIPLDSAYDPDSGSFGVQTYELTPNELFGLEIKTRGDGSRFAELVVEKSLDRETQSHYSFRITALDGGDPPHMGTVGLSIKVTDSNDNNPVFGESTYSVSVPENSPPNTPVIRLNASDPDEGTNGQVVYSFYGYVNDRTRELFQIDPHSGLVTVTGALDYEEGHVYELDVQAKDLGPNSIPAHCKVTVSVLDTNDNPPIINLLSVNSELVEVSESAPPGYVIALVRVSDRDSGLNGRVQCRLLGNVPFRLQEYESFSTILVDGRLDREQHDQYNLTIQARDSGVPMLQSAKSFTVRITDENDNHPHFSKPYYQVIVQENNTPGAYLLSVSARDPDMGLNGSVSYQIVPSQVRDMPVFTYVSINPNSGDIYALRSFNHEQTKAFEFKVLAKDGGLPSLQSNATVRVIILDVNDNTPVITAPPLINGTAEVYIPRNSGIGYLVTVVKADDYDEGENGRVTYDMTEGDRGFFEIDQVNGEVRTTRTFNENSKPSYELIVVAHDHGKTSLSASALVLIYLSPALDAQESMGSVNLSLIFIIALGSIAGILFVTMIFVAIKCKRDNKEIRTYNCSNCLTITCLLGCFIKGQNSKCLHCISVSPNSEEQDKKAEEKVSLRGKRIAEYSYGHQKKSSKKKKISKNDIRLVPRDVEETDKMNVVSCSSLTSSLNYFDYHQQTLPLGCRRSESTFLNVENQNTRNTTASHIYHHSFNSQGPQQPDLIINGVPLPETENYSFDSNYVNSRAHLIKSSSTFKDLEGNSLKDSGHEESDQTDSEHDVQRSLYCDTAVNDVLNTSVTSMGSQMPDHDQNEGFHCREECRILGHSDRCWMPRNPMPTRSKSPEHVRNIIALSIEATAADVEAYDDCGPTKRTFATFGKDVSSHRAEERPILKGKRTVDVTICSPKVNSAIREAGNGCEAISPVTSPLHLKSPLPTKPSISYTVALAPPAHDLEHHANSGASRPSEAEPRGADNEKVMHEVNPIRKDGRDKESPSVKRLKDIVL

B1: PCDH19-FLAG (protein, UniProt Q80TF3 22-1145)
chain: T1 sequence

Legend:
[1] = molecular target: T1, PCDH19-FLAG (mouse); test: co-IP; HEK293T cells co-transfected with differently tagged proteins, harvested 24 h after transfection; lysis buffer 50 mM Tris-HCl pH 7.5, 150 mM NaCl, 0.2% Triton X-100, 2 mM EDTA, 0.01% SDS; IP with anti-FLAG M2 or anti-HA agarose beads; western blot
[2] = molecular target: PCDH9-HA (mouse); test: as above

Molecule	binding [1]	binding [2]
PCDH1-MYC (mouse)	binds	
B1		binds
